# Data from the supplement of paper PMC10849652.
# Sequences of proteins named here, by UniProt entry; tags and fusion partners are left off. A change or cut given only in a name is not applied to a line headed by its entry.
# UniProt Q96AD5: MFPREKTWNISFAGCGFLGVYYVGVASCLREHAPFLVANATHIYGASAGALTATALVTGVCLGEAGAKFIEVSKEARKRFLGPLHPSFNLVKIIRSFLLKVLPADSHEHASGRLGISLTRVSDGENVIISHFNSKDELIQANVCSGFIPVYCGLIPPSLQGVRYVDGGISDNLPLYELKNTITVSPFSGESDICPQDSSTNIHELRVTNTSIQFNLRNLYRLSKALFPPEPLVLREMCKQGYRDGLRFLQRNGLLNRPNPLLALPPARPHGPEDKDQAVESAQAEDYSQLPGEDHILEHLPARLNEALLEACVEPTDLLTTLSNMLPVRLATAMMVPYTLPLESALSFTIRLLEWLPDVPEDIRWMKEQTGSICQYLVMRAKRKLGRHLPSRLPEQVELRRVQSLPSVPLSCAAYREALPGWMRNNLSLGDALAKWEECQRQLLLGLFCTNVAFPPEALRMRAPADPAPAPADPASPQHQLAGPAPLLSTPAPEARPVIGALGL
# UniProt Q92871: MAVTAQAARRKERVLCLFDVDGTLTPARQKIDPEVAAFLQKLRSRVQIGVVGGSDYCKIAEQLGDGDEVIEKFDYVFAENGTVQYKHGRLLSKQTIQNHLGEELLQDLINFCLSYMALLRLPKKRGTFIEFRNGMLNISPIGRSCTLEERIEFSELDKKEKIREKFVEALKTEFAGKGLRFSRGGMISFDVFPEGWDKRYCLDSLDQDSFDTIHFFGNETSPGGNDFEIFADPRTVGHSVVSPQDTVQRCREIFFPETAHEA
# UniProt Q10713: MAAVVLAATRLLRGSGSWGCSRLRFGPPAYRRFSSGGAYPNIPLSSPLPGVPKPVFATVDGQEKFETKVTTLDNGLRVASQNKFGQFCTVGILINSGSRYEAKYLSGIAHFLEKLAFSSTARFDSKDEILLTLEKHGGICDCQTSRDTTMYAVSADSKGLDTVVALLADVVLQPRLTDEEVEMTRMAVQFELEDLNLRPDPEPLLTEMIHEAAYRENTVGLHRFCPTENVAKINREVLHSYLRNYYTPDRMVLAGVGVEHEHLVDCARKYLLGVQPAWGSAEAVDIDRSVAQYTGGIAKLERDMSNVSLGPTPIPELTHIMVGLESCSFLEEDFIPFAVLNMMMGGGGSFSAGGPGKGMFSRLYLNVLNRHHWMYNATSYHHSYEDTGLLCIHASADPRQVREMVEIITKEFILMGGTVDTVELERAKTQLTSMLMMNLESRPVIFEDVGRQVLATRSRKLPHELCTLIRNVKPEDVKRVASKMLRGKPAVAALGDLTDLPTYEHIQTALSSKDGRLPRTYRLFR
# UniProt O75439: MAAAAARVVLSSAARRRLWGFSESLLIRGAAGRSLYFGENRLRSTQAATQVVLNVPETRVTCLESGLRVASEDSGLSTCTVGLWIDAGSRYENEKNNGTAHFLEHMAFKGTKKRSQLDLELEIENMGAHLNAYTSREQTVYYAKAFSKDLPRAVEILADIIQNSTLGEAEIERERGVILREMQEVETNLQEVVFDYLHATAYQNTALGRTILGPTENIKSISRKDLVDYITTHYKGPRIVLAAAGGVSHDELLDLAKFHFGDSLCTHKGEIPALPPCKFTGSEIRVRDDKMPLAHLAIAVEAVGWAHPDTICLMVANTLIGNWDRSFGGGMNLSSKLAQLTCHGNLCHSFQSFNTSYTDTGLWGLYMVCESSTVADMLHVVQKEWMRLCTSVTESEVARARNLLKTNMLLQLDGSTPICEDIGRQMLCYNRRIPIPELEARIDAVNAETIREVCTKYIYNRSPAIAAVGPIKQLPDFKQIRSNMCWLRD
# UniProt P0CG38, whole entry, looked up: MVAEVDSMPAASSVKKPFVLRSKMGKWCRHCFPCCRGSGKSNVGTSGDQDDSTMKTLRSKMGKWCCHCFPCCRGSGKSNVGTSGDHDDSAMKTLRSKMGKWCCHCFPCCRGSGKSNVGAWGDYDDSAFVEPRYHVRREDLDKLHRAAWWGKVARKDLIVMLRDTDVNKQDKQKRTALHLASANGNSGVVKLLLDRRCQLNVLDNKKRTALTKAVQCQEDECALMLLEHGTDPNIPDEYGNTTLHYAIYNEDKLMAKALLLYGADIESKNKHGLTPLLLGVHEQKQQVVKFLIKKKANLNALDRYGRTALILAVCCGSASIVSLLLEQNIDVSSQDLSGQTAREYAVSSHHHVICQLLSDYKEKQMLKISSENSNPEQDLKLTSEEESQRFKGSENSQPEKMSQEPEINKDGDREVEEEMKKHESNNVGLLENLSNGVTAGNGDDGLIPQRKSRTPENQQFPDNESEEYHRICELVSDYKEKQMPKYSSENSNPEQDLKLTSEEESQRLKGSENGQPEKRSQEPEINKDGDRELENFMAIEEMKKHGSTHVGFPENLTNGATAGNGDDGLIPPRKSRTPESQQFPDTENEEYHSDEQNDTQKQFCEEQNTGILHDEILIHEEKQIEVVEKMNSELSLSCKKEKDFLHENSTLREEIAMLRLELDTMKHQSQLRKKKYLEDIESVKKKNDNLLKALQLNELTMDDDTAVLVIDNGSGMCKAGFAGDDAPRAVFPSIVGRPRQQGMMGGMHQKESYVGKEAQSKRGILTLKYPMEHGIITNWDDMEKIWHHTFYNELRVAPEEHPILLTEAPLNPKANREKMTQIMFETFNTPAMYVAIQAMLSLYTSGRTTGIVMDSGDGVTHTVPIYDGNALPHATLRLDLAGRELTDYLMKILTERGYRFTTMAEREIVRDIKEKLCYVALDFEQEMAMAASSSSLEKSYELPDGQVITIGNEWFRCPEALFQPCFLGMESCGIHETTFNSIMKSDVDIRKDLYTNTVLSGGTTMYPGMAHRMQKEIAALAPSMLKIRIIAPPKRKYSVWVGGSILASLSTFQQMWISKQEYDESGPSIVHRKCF
# UniProt P29590: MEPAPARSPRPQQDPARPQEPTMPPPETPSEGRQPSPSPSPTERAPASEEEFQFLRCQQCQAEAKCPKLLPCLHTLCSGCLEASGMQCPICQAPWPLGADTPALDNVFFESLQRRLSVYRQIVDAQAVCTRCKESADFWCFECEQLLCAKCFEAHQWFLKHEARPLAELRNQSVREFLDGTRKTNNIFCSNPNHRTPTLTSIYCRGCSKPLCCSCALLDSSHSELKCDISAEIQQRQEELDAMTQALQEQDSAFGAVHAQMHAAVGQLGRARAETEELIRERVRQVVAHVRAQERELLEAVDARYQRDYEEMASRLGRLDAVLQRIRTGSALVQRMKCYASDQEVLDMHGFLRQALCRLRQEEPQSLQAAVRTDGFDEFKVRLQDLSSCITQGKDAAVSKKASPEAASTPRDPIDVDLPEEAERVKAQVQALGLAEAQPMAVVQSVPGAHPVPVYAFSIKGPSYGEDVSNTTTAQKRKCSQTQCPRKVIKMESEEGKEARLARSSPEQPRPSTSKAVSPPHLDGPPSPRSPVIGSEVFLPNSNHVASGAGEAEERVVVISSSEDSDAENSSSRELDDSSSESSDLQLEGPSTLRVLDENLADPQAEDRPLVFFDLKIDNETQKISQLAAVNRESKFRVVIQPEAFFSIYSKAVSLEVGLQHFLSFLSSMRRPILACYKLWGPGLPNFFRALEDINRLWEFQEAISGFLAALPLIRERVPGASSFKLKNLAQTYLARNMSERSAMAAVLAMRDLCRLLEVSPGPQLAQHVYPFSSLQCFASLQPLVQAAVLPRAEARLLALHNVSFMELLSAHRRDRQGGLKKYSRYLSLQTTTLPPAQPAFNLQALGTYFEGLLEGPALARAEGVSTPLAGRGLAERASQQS
# UniProt Q8WUA2: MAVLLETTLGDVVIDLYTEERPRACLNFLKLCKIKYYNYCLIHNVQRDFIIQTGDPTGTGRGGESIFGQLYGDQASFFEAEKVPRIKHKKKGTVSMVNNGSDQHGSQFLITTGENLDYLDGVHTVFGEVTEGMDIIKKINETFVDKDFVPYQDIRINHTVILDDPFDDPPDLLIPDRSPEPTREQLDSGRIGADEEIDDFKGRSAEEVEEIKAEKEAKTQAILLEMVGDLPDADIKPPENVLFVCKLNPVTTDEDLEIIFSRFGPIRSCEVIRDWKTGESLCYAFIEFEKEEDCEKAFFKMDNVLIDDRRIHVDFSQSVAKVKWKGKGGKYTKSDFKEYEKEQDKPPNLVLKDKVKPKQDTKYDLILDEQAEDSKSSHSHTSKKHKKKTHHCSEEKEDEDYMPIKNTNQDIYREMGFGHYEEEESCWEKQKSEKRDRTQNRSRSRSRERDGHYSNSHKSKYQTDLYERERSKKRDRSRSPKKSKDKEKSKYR
# UniProt Q9NW08: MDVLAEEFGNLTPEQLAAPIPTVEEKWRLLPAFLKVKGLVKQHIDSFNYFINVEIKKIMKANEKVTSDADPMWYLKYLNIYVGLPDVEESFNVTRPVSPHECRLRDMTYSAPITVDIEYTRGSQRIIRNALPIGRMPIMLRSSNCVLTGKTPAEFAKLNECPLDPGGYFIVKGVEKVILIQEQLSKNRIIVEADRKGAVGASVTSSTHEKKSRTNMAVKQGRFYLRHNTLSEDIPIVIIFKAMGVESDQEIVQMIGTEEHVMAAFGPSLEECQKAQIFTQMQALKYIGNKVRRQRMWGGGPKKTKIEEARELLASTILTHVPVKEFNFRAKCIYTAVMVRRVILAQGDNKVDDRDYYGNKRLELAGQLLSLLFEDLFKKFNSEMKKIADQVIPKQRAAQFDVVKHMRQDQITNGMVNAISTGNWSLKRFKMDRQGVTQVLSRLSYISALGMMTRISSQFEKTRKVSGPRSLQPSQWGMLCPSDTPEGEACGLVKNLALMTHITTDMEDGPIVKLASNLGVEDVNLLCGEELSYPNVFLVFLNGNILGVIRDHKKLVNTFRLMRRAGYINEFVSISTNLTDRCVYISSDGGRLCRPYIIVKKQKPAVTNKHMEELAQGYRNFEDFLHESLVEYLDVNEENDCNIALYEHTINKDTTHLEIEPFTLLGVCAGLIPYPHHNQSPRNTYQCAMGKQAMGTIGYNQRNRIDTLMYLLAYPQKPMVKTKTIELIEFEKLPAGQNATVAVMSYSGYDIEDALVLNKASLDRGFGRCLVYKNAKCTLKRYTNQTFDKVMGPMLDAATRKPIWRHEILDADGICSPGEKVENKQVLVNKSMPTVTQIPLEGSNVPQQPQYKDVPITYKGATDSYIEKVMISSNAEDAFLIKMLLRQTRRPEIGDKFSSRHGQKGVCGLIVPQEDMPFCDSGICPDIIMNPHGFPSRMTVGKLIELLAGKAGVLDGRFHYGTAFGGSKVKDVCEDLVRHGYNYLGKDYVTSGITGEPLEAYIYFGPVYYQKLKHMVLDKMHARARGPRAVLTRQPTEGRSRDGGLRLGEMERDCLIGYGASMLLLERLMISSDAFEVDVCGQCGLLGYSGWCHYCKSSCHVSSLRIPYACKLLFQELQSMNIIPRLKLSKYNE
# UniProt Q15165: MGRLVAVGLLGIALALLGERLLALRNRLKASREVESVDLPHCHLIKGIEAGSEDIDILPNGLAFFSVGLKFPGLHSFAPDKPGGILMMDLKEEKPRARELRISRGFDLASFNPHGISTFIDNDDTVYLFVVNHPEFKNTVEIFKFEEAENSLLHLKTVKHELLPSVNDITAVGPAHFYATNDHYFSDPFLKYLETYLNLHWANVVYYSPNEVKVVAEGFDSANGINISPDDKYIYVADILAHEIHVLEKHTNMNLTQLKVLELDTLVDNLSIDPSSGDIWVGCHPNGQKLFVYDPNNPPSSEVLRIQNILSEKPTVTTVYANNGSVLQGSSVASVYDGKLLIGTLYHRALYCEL
# UniProt Q08752, whole entry, looked up: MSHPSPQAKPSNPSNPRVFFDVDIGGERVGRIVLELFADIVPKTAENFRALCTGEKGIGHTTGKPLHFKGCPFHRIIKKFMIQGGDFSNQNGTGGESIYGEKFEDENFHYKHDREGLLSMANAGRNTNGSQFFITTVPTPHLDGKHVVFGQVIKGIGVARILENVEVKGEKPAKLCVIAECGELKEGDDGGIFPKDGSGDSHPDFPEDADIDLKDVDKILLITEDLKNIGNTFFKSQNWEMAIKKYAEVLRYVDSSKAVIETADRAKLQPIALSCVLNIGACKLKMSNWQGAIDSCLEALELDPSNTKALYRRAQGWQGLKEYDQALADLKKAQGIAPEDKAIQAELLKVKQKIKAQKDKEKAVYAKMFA
# UniProt O15162: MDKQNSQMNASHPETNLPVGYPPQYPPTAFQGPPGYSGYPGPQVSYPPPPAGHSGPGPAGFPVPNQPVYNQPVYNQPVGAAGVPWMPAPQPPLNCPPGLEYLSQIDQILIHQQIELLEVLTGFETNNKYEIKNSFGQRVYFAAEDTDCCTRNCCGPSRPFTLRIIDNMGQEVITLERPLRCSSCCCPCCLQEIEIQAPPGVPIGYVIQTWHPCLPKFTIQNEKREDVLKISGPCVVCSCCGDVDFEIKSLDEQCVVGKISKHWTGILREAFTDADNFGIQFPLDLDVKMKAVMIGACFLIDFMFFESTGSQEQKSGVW
# This is one part of the list. Residues, ends and D or L forms follow the SMILES beside them. *: point of attachment. Cbz = O=C(OCc1ccccc1)*
# Key:
# Experiment in all cases: log2 fold change, soluble protein after heating vs DMSO (PISA); higher = thermal stabilisation; K562 cells, 10 uM, 30 min; active = over 0.2 and 3.5 SD of the protein, either way, in both replicates (recomputed)
# erlotinib = compound: C#Cc1cccc(Nc2ncnc3cc(OCCOC)c(OCCOC)cc23)c1 [erlotinib]
# Outline: (§1)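 K562 cells at 2×10^6 cells/mL were treated with 10 μM compound for 30 min. Aliquots were heated for 3 min across 48°C-58°C, pooled, and extracted in PBS with 0.5% NP-40 at 4°C; soluble protein was the supernatant after 21,000xg for 90 min. Soluble protein was quantified by TMTpro 16plex LC-MS/MS with channel sums equalised, and reported as log2 fold change in thermal stability against DMSO controls, with values from duplicates.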
# [1] = compound: C/C(=N\NC(=O)C1=CC(=CC=C1)S(=O)(=O)N2CCOCC2)/C3=C(C=CC(=C3)Cl)O
# Outline: as §1
# [2] = compound: C1=CC(=C(C=C1Cl)C2=NC3=NC=CN=C3C(=N2)NC4=CC=NC=C4)F
# Outline: as §1
# [3] = compound: C1=CC(=CC=C1C2=NC3=C(N2)C=C(C=C3)C(=O)N)OC4=CC=C(C=C4)Cl
# Outline: as §1
# [4] = compound: C1=CC2=C(C=CC(=C2)/C=C\3/C(=O)NC(=NCC4=CC=CS4)S3)N=C1
# Outline: as §1
# [5] = compound: C1=CC2=NC=CN=C2C=C1/C=C/3\C(=O)NC(=O)S3
# Outline: as §1
# [6] = compound: C1=CC=C(C=C1)C2=NC(=C(N2)C3=CC=NC=C3)C4=CC(=C(C=C4)Cl)O
# Outline: as §1
# [7] = compound: C1=CC=C2C(=C1)C3=NNC4=CC=CC(=C43)C2=O
# Outline: as §1
# [8] = compound: C1CCN(C1)C(=O)NC2=CC=CC(=C2)NC3=NC=C(C(=N3)NCCC4=CN=CN4)Br
# Outline: as §1
# [9] = compound: C1CN(CCC1(CC2=CC=C(C=C2)Cl)N)C3=NC=NC4=C3C=CN4
# Outline: as §1
# IRAK-1-4 Inhibitor I = compound: C1COCCN1CCN2C3=CC=CC=C3N=C2NC(=O)C4=CC(=CC=C4)[N+](=O)[O-] [IRAK-1-4 Inhibitor I]
# Outline: as §1
# ibrutinib = compound: C=CC(=O)N1CCC[C@@H](n2nc(-c3ccc(Oc4ccccc4)cc3)c3c(N)ncnc32)C1 [ibrutinib]
# Outline: as §1
# [10] = compound: CC(=O)c1cnc2ccc(-c3cc(Cl)c(O)c(Cl)c3)nc2c1N[C@H]1CC[C@H](CN(C)C)CC1
# Outline: as §1
# ralimetinib = compound: CC(C)(C)Cn1c(N)nc2ccc(-c3[nH]c(C(C)(C)C)nc3-c3ccc(F)cc3)nc21 [ralimetinib]
# Outline: as §1
# [11] = compound: CC(C)(O)CC(=O)NCCn1ccc2ncnc(Nc3ccc(Oc4cccc(C(F)(F)F)c4)c(Cl)c3)c21
# Outline: as §1
# [12] = compound: CC(C)C1=C2N=C(C=C(N2N=C1)NCC3=CC=CC=C3)NCCCCCCN
# Outline: as §1
# [13] = compound: CC(C)C[C@@H](C=O)NC(=O)[C@H](CC(C)C)NC(=O)[C@H](CC(C)C)NC(=O)OCc1ccccc1
# Outline: as §1
# pinometostat = compound: CC(C)N(C[C@H]1O[C@@H](n2cnc3c(N)ncnc32)[C@H](O)[C@@H]1O)[C@H]1C[C@@H](CCc2nc3cc(C(C)(C)C)ccc3[nH]2)C1 [pinometostat]
# Outline: as §1
# [14] = compound: CC1=C(C2=C(C=C1)C(=O)C3=CC=CC=C3N2CCCN)C
# Outline: as §1
# [15] = compound: CC1=C(C(CC(=O)N1)C2=CC=C(C=C2)C(F)(F)F)C(=O)NC3=C(C=C4C(=C3)C=NN4)F
# Outline: as §1
Target,log2 fold change (erlotinib),log2 fold change [1],log2 fold change [2],log2 fold change [3],log2 fold change [4],log2 fold change [5],log2 fold change [6],log2 fold change [7],log2 fold change [8],log2 fold change [9],log2 fold change (IRAK-1-4 Inhibitor I),log2 fold change (ibrutinib),log2 fold change [10],log2 fold change (ralimetinib),log2 fold change [11],log2 fold change [12],log2 fold change [13],log2 fold change (pinometostat),log2 fold change [14],log2 fold change [15]
PLK1 (UniProt P53350),inactive: -0.027,inactive: 0.035,inactive: 0.006,inactive: 0.079,inactive: -0.041,inactive: -0.017,inactive: -0.018,inactive: 0.058,inactive: -0.003,inactive: -0.039,inactive: -0.035,inactive: 0.022,active: -1.17,inactive: 0.006,inactive: -0.011,inactive: 0.186,inactive: 0.015,inactive: 0.019,inactive: 0.144,–
PNPLA2 (UniProt Q96AD5),inactive: 0.017,inactive: 0.052,inactive: 0.007,inactive: -0.021,inactive: 0.045,inactive: 0.063,inactive: -0.015,inactive: -0.027,inactive: 0.101,inactive: -0.034,inactive: -0.006,inactive: 0.166,inactive: -0.116,inactive: -0.009,inactive: 0.044,inactive: -0.184,inactive: 0.121,inactive: -0.018,inactive: -0.004,–
PMM1 (UniProt Q92871),inactive: -0.021,inactive: -0.041,inactive: 0.004,inactive: 0.065,inactive: 0.1,inactive: 0.002,inactive: -0.007,inactive: -0.049,inactive: 0.001,inactive: 0.036,inactive: -0.06,inactive: 0.039,inactive: -0.011,inactive: -0.024,inactive: 0.014,inactive: 0.187,inactive: 0.019,inactive: -0.037,inactive: 0.049,–
PMPCA (UniProt Q10713),inactive: -0.014,inactive: 0.005,inactive: 0.064,inactive: 0.016,inactive: 0.03,inactive: -0.014,inactive: 0.07,inactive: 0.065,inactive: -0.026,inactive: 0.011,inactive: 0.016,inactive: -0.008,inactive: -0.029,inactive: 0.057,inactive: -0.155,inactive: 0.097,inactive: -0.003,inactive: -0.015,inactive: 0.055,–
PMPCB (UniProt O75439),inactive: -0.022,inactive: 0,inactive: 0.031,inactive: 0.024,inactive: 0.019,inactive: 0.007,inactive: 0.023,inactive: 0.078,inactive: -0.014,inactive: 0.046,inactive: 0.035,inactive: 0.008,inactive: 0.01,inactive: 0.064,inactive: -0.108,inactive: 0.04,inactive: 0.012,inactive: -0.022,inactive: 0.015,–
POTEI (UniProt P0CG38),inactive: 0.023,inactive: 0.007,inactive: -0.009,inactive: 0.011,inactive: -0.037,inactive: -0.052,inactive: 0.045,inactive: 0.038,inactive: -0.003,inactive: 0.046,inactive: -0.176,inactive: 0.046,inactive: 0.052,inactive: 0.003,inactive: 0.015,inactive: 0.059,inactive: -0.025,inactive: -0.179,inactive: 0.012,–
PML (UniProt P29590),inactive: 0.045,inactive: -0.073,inactive: 0.015,inactive: -0.022,inactive: -0.043,inactive: 0.071,inactive: 0.033,inactive: 0.007,inactive: 0.002,inactive: -0.005,inactive: 0.031,inactive: 0.006,inactive: 0.052,inactive: 0.045,inactive: 0.012,inactive: -0.025,inactive: -0.05,inactive: -0.021,inactive: -0.035,–
PPIL4 (UniProt Q8WUA2),inactive: 0.011,inactive: 0.056,inactive: -0.049,inactive: 0.043,inactive: -0.023,inactive: 0,inactive: 0.04,inactive: -0.009,inactive: -0.06,inactive: -0.044,inactive: -0.102,inactive: 0.013,active: -0.27,inactive: 0.101,inactive: 0.04,inactive: -0.114,inactive: -0.065,inactive: 0.055,inactive: 0.066,–
POP1 (UniProt Q99575),inactive: -0.01,inactive: 0.028,inactive: -0.015,inactive: 0.029,inactive: -0.011,inactive: 0.022,inactive: 0.017,inactive: -0.016,inactive: 0,inactive: -0.01,inactive: -0.024,inactive: 0,inactive: 0.001,inactive: 0.029,inactive: -0.006,inactive: 0.013,inactive: -0.03,inactive: 0.003,active: -0.271,–
POLR3B (UniProt Q9NW08),inactive: -0.022,inactive: -0.027,inactive: -0.003,inactive: -0.09,inactive: 0.004,inactive: 0.022,inactive: 0.025,inactive: -0.018,inactive: 0.194,inactive: -0.088,inactive: -0.121,inactive: -0.048,inactive: 0.044,inactive: 0.052,inactive: -0.116,inactive: -0.183,inactive: 0.055,inactive: 0.115,active: 0.297,–
PON2 (UniProt Q15165),inactive: -0.045,inactive: -0.065,inactive: 0.016,inactive: 0.004,inactive: -0.025,inactive: 0.022,inactive: -0.013,inactive: 0.037,inactive: 0.049,inactive: 0.046,inactive: 0.007,inactive: 0.022,inactive: -0.012,inactive: -0.092,inactive: -0.043,inactive: -0.016,inactive: 0.007,inactive: 0.037,inactive: -0.023,inactive: 0.038
PNPLA8 (UniProt Q9NP80),inactive: 0.101,inactive: 0.031,inactive: 0.014,inactive: -0.029,inactive: 0.008,inactive: 0,inactive: 0.089,inactive: 0.022,inactive: 0.018,inactive: 0.037,inactive: -0.022,inactive: -0.049,inactive: 0.151,inactive: -0.005,inactive: -0.071,inactive: -0.06,inactive: 0.003,inactive: 0.064,inactive: 0.043,–
PPIL2 (UniProt Q13356),inactive: 0.061,inactive: 0.072,inactive: 0.064,inactive: -0.033,inactive: 0.047,inactive: 0.004,inactive: 0.026,inactive: 0.067,inactive: -0.052,inactive: -0.079,inactive: -0.097,inactive: -0.048,inactive: -0.077,inactive: 0,inactive: -0.081,inactive: -0.044,inactive: 0.096,inactive: -0.063,inactive: 0.062,–
POLR2I (UniProt P36954),inactive: -0.058,inactive: -0.107,inactive: 0.108,inactive: 0.068,inactive: -0.073,inactive: -0.117,inactive: 0.079,inactive: -0.043,inactive: -0.092,inactive: 0,inactive: 0.045,inactive: 0.136,active: 0.425,inactive: -0.079,inactive: 0.035,inactive: 0.389,inactive: 0.03,inactive: -0.024,inactive: 0.324,–
PPID (UniProt Q08752),inactive: 0.114,inactive: 0.111,inactive: -0.01,inactive: -0.021,inactive: 0.075,inactive: 0.007,inactive: 0.095,inactive: 0.021,inactive: -0.076,inactive: -0.118,inactive: -0.141,inactive: -0.057,inactive: -0.013,inactive: 0.103,inactive: -0.152,inactive: -0.238,inactive: 0.053,inactive: 0.105,inactive: 0.022,–
PLSCR1 (UniProt O15162),inactive: -0.023,inactive: 0.03,inactive: 0.089,inactive: 0.077,inactive: -0.004,inactive: 0.022,inactive: 0.061,inactive: -0.04,inactive: -0.008,inactive: 0.05,inactive: -0.003,inactive: 0.002,inactive: -0.025,inactive: -0.046,inactive: 0.047,inactive: 0.031,inactive: -0.036,inactive: -0.015,inactive: 0.031,–
POLD3 (UniProt Q15054),inactive: 0.083,inactive: 0.131,inactive: 0.048,inactive: -0.031,inactive: 0.048,inactive: 0.038,inactive: 0.027,inactive: -0.07,inactive: -0.016,inactive: -0.099,inactive: -0.013,inactive: -0.01,inactive: -0.043,inactive: -0.001,inactive: -0.114,active: -0.357,inactive: -0.117,inactive: -0.016,inactive: 0.013,–

# Full records as entered above. Order of values: log2 fold change (erlotinib)	log2 fold change [1]	log2 fold change [2]	log2 fold change [3]	log2 fold change [4]	log2 fold change [5]	log2 fold change [6]	log2 fold change [7]	log2 fold change [8]	log2 fold change [9]	log2 fold change (IRAK-1-4 Inhibitor I)	log2 fold change (ibrutinib)	log2 fold change [10]	log2 fold change (ralimetinib)	log2 fold change [11]	log2 fold change [12]	log2 fold change [13]	log2 fold change (pinometostat)	log2 fold change [14]	log2 fold change [15]
# POLR3B (UniProt Q9NW08) reads inactive: -0.022	inactive: -0.027	inactive: -0.003	inactive: -0.09	inactive: 0.004	inactive: 0.022	inactive: 0.025	inactive: -0.018	inactive: 0.194	inactive: -0.088	inactive: -0.121	inactive: -0.048	inactive: 0.044	inactive: 0.052	inactive: -0.116	inactive: -0.183	inactive: 0.055	inactive: 0.115	active: 0.297	–
# POLR2I (UniProt P36954) reads inactive: -0.058	inactive: -0.107	inactive: 0.108	inactive: 0.068	inactive: -0.073	inactive: -0.117	inactive: 0.079	inactive: -0.043	inactive: -0.092	inactive: 0	inactive: 0.045	inactive: 0.136	active: 0.425	inactive: -0.079	inactive: 0.035	inactive: 0.389	inactive: 0.03	inactive: -0.024	inactive: 0.324	–
